Assay results published in the supplement of paper PMC10849652.
The list shows a part of the results. Residues, ends and D or L forms follow the SMILES beside them. *: point of attachment. Cbz = O=C(OCc1ccccc1)*

Chains of the proteins cited; added tags and fusions are not shown. Lines headed by an entry give the natural chain unless they say otherwise; changes in a name come on top.
UniProt Q9NW08: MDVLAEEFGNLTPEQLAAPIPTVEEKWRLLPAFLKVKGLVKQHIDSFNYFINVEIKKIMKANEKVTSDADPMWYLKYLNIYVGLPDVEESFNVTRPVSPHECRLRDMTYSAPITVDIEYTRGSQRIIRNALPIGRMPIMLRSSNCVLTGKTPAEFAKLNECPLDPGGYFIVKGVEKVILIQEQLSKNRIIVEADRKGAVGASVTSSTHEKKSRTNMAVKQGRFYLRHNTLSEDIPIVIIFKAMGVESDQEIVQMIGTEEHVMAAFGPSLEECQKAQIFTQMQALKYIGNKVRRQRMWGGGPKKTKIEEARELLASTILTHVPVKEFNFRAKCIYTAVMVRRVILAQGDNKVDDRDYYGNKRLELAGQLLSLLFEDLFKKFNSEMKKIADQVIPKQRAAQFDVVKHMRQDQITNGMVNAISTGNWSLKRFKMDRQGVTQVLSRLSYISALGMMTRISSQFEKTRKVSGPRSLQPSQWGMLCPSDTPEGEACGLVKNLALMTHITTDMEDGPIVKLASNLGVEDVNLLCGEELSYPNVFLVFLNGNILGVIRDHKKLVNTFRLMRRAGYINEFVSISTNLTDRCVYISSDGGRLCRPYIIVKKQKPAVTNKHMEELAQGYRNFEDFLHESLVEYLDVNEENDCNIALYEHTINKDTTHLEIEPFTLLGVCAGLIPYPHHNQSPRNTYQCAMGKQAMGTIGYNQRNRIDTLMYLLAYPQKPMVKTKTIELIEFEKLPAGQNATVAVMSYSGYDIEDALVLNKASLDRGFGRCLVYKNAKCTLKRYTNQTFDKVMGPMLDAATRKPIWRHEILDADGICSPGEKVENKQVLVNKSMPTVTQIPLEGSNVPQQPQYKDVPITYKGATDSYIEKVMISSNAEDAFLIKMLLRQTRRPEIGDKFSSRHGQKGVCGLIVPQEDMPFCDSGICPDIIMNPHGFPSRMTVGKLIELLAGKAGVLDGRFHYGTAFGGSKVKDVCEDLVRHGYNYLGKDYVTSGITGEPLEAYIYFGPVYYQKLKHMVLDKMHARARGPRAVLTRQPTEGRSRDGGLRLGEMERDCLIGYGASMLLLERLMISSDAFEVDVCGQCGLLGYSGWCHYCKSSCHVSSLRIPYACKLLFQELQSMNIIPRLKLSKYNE
UniProt Q15054: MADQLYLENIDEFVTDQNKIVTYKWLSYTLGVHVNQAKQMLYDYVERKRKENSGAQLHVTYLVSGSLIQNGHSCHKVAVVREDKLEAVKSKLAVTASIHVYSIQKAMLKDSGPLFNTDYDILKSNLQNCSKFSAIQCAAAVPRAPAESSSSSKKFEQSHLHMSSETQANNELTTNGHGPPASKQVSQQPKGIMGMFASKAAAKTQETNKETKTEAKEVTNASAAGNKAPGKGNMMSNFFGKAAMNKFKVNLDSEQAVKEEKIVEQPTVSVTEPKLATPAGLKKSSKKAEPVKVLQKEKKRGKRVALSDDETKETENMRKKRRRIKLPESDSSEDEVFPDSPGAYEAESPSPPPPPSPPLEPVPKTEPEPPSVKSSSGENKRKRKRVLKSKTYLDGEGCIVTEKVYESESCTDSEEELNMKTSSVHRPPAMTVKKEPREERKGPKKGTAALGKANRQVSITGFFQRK
UniProt Q9NRY6: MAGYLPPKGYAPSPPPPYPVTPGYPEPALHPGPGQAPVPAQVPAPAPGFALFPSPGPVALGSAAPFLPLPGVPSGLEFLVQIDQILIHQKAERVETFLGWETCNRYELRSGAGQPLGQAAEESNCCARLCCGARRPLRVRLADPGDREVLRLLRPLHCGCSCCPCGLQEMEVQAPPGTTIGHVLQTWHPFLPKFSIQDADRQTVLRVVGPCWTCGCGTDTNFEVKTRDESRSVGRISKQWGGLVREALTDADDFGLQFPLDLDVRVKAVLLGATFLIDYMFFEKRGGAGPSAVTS
UniProt Q9NR33: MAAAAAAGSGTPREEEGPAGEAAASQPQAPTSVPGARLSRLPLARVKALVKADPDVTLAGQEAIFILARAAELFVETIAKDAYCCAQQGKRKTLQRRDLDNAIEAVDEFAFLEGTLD
UniProt P28340: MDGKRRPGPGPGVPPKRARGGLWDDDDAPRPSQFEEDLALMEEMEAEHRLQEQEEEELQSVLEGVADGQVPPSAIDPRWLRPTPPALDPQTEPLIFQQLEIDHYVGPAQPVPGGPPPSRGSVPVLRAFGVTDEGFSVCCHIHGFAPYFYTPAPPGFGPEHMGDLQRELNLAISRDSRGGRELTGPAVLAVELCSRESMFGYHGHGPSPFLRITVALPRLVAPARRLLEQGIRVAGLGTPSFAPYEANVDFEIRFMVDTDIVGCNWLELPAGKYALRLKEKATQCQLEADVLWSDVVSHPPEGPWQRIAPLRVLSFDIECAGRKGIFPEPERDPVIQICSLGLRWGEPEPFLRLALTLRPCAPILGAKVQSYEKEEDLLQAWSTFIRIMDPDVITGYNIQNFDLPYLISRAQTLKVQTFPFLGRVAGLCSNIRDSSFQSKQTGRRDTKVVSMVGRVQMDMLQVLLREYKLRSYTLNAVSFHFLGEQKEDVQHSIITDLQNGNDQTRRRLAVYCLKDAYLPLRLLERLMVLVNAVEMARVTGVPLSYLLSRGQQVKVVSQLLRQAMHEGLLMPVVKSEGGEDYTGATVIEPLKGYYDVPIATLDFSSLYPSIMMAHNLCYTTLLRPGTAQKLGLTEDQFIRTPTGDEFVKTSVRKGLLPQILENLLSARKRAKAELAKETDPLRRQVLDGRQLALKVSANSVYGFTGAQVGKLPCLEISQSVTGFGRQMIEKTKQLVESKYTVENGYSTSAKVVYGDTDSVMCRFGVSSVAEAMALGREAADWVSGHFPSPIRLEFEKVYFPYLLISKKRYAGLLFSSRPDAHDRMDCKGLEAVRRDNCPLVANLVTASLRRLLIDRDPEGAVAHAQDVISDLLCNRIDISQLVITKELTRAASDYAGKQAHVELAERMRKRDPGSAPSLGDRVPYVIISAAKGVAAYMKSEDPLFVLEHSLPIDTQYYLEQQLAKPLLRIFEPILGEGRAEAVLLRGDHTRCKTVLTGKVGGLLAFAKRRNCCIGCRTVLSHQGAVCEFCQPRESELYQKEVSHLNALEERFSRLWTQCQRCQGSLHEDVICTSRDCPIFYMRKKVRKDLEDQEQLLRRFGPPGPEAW
UniProt Q9NUX5: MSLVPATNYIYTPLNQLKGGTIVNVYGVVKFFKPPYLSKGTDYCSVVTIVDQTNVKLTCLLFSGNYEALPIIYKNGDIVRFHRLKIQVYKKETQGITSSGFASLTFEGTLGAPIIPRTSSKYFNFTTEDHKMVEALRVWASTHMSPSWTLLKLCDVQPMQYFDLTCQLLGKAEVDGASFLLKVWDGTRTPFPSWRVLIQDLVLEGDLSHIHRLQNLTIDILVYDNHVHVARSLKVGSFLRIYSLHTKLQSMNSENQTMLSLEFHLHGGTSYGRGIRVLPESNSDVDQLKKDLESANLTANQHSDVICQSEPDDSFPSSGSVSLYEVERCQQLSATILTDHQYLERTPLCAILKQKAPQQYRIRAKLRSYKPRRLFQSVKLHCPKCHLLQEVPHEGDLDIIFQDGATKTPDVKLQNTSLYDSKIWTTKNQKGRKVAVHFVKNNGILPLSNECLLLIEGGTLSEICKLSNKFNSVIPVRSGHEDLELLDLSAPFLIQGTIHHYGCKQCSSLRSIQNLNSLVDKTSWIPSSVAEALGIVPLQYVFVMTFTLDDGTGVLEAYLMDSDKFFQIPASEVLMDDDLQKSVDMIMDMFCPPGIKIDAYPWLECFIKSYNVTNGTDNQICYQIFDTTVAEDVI
UniProt P11086: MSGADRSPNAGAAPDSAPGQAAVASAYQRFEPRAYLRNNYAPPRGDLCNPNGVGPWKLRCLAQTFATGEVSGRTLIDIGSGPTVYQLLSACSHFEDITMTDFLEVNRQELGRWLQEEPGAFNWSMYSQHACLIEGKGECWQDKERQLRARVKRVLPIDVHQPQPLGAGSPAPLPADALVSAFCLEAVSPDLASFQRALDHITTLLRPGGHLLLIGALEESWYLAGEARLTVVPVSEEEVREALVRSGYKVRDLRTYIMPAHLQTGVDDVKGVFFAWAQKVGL
UniProt Q13427: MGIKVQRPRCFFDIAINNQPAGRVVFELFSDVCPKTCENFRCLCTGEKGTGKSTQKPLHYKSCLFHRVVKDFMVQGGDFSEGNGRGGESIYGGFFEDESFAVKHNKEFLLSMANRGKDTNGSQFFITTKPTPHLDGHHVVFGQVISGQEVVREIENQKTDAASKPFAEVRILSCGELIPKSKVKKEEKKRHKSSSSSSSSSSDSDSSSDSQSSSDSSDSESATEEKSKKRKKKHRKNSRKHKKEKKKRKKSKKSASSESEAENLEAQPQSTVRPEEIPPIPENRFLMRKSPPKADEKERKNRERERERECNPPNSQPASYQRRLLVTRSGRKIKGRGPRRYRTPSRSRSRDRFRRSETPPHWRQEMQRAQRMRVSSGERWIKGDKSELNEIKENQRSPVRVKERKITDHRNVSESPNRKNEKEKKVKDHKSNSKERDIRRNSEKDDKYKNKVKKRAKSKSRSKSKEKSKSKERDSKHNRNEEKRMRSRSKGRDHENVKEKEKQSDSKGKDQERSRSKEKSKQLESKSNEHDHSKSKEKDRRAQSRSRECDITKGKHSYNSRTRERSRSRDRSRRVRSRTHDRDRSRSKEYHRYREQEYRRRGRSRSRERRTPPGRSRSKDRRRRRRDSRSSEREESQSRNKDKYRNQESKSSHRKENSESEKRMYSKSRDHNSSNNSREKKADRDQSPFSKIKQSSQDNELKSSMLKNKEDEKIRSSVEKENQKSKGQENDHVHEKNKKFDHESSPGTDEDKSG
UniProt Q8TD55: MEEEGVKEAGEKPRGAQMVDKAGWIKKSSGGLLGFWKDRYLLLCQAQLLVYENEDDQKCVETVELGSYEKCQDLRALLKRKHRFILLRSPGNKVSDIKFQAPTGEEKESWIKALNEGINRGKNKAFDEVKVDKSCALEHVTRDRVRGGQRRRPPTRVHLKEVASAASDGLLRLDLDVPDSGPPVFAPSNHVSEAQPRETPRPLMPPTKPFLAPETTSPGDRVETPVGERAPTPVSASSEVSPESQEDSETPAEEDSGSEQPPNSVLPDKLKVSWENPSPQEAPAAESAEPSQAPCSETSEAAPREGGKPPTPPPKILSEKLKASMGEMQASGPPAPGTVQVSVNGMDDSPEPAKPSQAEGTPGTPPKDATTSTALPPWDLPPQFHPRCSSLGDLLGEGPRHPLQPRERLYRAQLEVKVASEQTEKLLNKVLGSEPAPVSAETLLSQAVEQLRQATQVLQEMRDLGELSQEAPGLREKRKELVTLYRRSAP
UniProt Q8NEY8: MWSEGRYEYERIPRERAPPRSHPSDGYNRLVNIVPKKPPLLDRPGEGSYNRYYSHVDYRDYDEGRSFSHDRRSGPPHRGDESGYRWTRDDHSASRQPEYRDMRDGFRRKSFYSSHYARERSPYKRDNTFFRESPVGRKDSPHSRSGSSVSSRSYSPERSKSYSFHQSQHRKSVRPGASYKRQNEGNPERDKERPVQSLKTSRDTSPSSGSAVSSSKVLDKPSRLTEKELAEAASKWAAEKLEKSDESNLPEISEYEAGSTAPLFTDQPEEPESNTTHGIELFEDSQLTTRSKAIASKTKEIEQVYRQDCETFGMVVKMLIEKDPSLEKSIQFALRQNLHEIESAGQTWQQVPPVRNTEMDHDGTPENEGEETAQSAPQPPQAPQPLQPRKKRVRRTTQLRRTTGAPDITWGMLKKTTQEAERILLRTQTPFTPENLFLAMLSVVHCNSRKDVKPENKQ
UniProt O60664: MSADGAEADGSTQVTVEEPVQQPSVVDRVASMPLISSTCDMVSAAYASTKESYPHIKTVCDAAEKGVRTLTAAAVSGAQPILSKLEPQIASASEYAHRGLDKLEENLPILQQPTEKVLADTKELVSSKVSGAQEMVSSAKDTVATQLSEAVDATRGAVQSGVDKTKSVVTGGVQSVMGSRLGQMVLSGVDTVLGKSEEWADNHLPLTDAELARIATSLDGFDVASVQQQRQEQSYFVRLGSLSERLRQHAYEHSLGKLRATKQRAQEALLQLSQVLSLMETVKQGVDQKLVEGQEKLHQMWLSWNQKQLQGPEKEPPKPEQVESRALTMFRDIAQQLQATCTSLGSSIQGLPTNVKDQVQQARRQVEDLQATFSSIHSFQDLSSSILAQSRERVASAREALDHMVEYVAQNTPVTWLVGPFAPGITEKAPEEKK

What was measured:
Assay in all cases: log2 fold change, soluble protein after heating vs DMSO (PISA); higher = thermal stabilisation; K562 cells, 10 uM, 30 min; active = over 0.2 and 3.5 SD of the protein, either way, in both replicates (recomputed)
erlotinib = compound: C#Cc1cccc(Nc2ncnc3cc(OCCOC)c(OCCOC)cc23)c1 [erlotinib]
In short: (§1)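 Values are thermal stability changes relative to control samples and are taken from duplicates. They are stated as log2 fold changes. Before quantification by TMTpro 16plex LC-MS/MS with equalised channel sums, K562 cells at 2×10^6 cells/mL were treated with 10 μM compound for 30 min, heated in aliquots for 3 min across 48°C-58°C, pooled, extracted in PBS with 0.5% NP-40 at 4°C, and centrifuged at 21,000xg for 90 min to give the soluble supernatant.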

[1] = compound: C/C(=N\NC(=O)C1=CC(=CC=C1)S(=O)(=O)N2CCOCC2)/C3=C(C=CC(=C3)Cl)O
In short: as §1

[2] = compound: C1=CC(=C(C=C1Cl)C2=NC3=NC=CN=C3C(=N2)NC4=CC=NC=C4)F
In short: as §1

[3] = compound: C1=CC(=CC=C1C2=NC3=C(N2)C=C(C=C3)C(=O)N)OC4=CC=C(C=C4)Cl
In short: as §1

[4] = compound: C1=CC2=C(C=CC(=C2)/C=C\3/C(=O)NC(=NCC4=CC=CS4)S3)N=C1
In short: as §1

[5] = compound: C1=CC=C(C=C1)C2=NC(=C(N2)C3=CC=NC=C3)C4=CC(=C(C=C4)Cl)O
In short: as §1

[6] = compound: C1=CC=C2C(=C1)C3=NNC4=CC=CC(=C43)C2=O
In short: as §1

[7] = compound: C1CCN(C1)C(=O)NC2=CC=CC(=C2)NC3=NC=C(C(=N3)NCCC4=CN=CN4)Br
In short: as §1

[8] = compound: C1CN(CCC1(CC2=CC=C(C=C2)Cl)N)C3=NC=NC4=C3C=CN4
In short: as §1

IRAK-1-4 Inhibitor I = compound: C1COCCN1CCN2C3=CC=CC=C3N=C2NC(=O)C4=CC(=CC=C4)[N+](=O)[O-] [IRAK-1-4 Inhibitor I]
In short: as §1

[9] = compound: CC(=O)c1cnc2ccc(-c3cc(Cl)c(O)c(Cl)c3)nc2c1N[C@H]1CC[C@H](CN(C)C)CC1
In short: as §1

ralimetinib = compound: CC(C)(C)Cn1c(N)nc2ccc(-c3[nH]c(C(C)(C)C)nc3-c3ccc(F)cc3)nc21 [ralimetinib]
In short: as §1

[10] = compound: CC(C)(O)CC(=O)NCCn1ccc2ncnc(Nc3ccc(Oc4cccc(C(F)(F)F)c4)c(Cl)c3)c21
In short: as §1

[11] = compound: CC(C)C1=C2N=C(C=C(N2N=C1)NCC3=CC=CC=C3)NCCCCCCN
In short: as §1

[12] = compound: CC(C)C[C@@H](C=O)NC(=O)[C@H](CC(C)C)NC(=O)[C@H](CC(C)C)NC(=O)OCc1ccccc1
In short: as §1

pinometostat = compound: CC(C)N(C[C@H]1O[C@@H](n2cnc3c(N)ncnc32)[C@H](O)[C@@H]1O)[C@H]1C[C@@H](CCc2nc3cc(C(C)(C)C)ccc3[nH]2)C1 [pinometostat]
In short: as §1

[13] = compound: CC1=C(C2=C(C=C1)C(=O)C3=CC=CC=C3N2CCCN)C
In short: as §1

[14] = compound: C1=CC2=NC=CN=C2C=C1/C=C/3\C(=O)NC(=O)S3
In short: as §1

ibrutinib = compound: C=CC(=O)N1CCC[C@@H](n2nc(-c3ccc(Oc4ccccc4)cc3)c3c(N)ncnc32)C1 [ibrutinib]
In short: as §1

[15] = compound: CC1=C(C(CC(=O)N1)C2=CC=C(C=C2)C(F)(F)F)C(=O)NC3=C(C=C4C(=C3)C=NN4)F
In short: as §1

Target | log2 fold change (erlotinib) | log2 fold change [1] | log2 fold change [2] | log2 fold change [3] | log2 fold change [4] | log2 fold change [5] | log2 fold change [6] | log2 fold change [7] | log2 fold change [8] | log2 fold change (IRAK-1-4 Inhibitor I) | log2 fold change [9] | log2 fold change (ralimetinib) | log2 fold change [10] | log2 fold change [11] | log2 fold change [12] | log2 fold change (pinometostat) | log2 fold change [13] | log2 fold change [14] | log2 fold change (ibrutinib) | log2 fold change [15]
POGZ (UniProt Q7Z3K3) | inactive: 0.006 | inactive: 0.085 | inactive: 0.044 | inactive: 0.033 | inactive: -0.172 | inactive: 0.023 | inactive: 0.082 | inactive: 0.026 | inactive: 0.115 | inactive: -0.133 | inactive: -0.183 | inactive: 0.083 | inactive: -0.035 | inactive: 0.066 | inactive: 0.038 | inactive: -0.05 | active: -0.826 |  |  | 
POLR3B (UniProt Q9NW08) | inactive: -0.022 | inactive: -0.027 | inactive: -0.003 | inactive: -0.09 | inactive: 0.004 | inactive: 0.025 | inactive: -0.018 | inactive: 0.194 | inactive: -0.088 | inactive: -0.121 | inactive: 0.044 | inactive: 0.052 | inactive: -0.116 | inactive: -0.183 | inactive: 0.055 | inactive: 0.115 | active: 0.297 | inactive: 0.022 | inactive: -0.048 | 
POLD3 (UniProt Q15054) | inactive: 0.083 | inactive: 0.131 | inactive: 0.048 | inactive: -0.031 | inactive: 0.048 | inactive: 0.027 | inactive: -0.07 | inactive: -0.016 | inactive: -0.099 | inactive: -0.013 | inactive: -0.043 | inactive: -0.001 | inactive: -0.114 | active: -0.357 | inactive: -0.117 | inactive: -0.016 | inactive: 0.013 | inactive: 0.038 | inactive: -0.01 | 
PLSCR3 (UniProt Q9NRY6) | inactive: 0.057 | inactive: 0.163 |  | inactive: 0.003 | inactive: -0.036 |  | inactive: -0.238 |  |  |  | inactive: -0.041 |  |  | inactive: 0.11 |  |  |  |  |  | inactive: -0.092
POLE4 (UniProt Q9NR33) | inactive: 0.041 | inactive: 0.024 | inactive: 0.11 | inactive: -0.12 | inactive: -0.002 |  | inactive: 0.031 | inactive: 0 | inactive: 0.015 | inactive: 0.021 | inactive: 0.034 |  | inactive: -0.119 | inactive: 0.092 |  | inactive: -0.016 | inactive: 0.149 | inactive: 0.085 | inactive: 0.078 | inactive: 0.039
POLD1 (UniProt P28340) | inactive: 0.063 | inactive: 0.039 | inactive: -0.009 | inactive: -0.016 | inactive: 0.023 | inactive: 0.05 | inactive: -0.058 | inactive: -0.02 | inactive: -0.022 | inactive: -0.009 | inactive: -0.081 | inactive: -0.02 | inactive: -0.085 | inactive: -0.12 | inactive: 0.11 | inactive: 0.024 | inactive: -0.011 | inactive: -0.024 | inactive: 0.021 | 
POT1 (UniProt Q9NUX5) | inactive: 0.107 |  | inactive: 0.047 | inactive: -0.215 |  | inactive: 0.11 |  | inactive: -0.095 | inactive: 0.032 |  |  | inactive: 0.069 | inactive: 0.049 | inactive: 0.066 | inactive: -0.027 |  | inactive: 0.082 | inactive: 0.144 | inactive: 0.127 | inactive: -0.07
POLR2J (UniProt P52435) | inactive: -0.048 | inactive: 0.074 | inactive: 0.049 | inactive: 0.037 | inactive: -0.047 |  | inactive: 0.015 |  |  |  | inactive: 0.131 |  | inactive: -0.159 | inactive: 0.098 |  |  |  | inactive: 0.581 | inactive: -0.26 | inactive: -0.112
PNMT (UniProt P11086) | inactive: 0.236 | inactive: 0.043 |  | inactive: 0.042 | inactive: 0.079 |  | inactive: 0.081 | inactive: 0.015 | inactive: -0.007 |  | inactive: -0.091 |  |  | inactive: -0.091 |  |  | inactive: 0.125 |  |  | 
PPIG (UniProt Q13427) |  |  |  |  |  | inactive: 0.062 |  |  |  | inactive: -0.386 |  | inactive: 0.064 |  |  | inactive: 0.099 | inactive: 0.182 |  | inactive: -0.259 | inactive: 0.145 | 
PLEKHO2 (UniProt Q8TD55) | inactive: 0.007 |  |  | inactive: 0.057 |  | inactive: 0.005 |  | inactive: -0.005 | inactive: 0.035 | inactive: 0.12 |  | inactive: -0.078 |  | inactive: -0.097 | inactive: 0.08 | inactive: 0.027 | inactive: 0.174 | inactive: 0 | inactive: -0.086 | inactive: 0.066
PPHLN1 (UniProt Q8NEY8) | inactive: -0.06 |  |  | inactive: 0.044 |  | inactive: -0.092 |  |  |  | inactive: -0.003 |  | inactive: 0.033 |  | inactive: 0.123 | inactive: 0.174 | inactive: -0.018 |  | inactive: 0.065 | inactive: 0.093 | 
PLIN3 isoform 2 (UniProt O60664) |  | inactive: -0.371 | inactive: -0.357 |  | inactive: 0.189 |  | inactive: -0.149 |  |  |  | inactive: -0.258 |  | inactive: 0.018 |  |  |  |  | inactive: -0.193 | inactive: 0.175 | 
PPIP5K2 (UniProt H0Y9S9) |  |  | inactive: 0.07 |  |  | inactive: -0.059 |  | inactive: -0.275 | inactive: 0.169 | inactive: 0.131 |  | inactive: 0.034 | inactive: -0.063 |  | inactive: 0.346 | inactive: -0.208 | inactive: 0.116 | inactive: -0.068 | inactive: -0.077 | inactive: 0.121
PPFIA3 (UniProt O75145) |  |  | inactive: -0.01 |  |  |  |  |  |  |  |  |  | inactive: -0.009 |  |  |  |  |  |  | 
PLXNB1 (UniProt O43157) |  | inactive: 0.034 | inactive: 0.062 |  | inactive: 0.056 |  | inactive: -0.064 |  |  |  | inactive: 0.03 |  | inactive: 0.014 |  |  |  |  |  |  | 

An excerpt from above, limited to log2 fold change (ibrutinib), log2 fold change [13] and log2 fold change [6].

| Target | log2 fold change (ibrutinib) | log2 fold change [13] | log2 fold change [6] |
| --- | --- | --- | --- |
| POT1 (UniProt Q9NUX5) | inactive: 0.127 | inactive: 0.082 |  |
| PPIP5K2 (UniProt H0Y9S9) | inactive: -0.077 | inactive: 0.116 |  |
